From paper PMC3897731, “Antimicrobial Properties and Membrane-Active Mechanism of a Potential α-Helical Antimicrobial Derived from Cathelicidin PMAP-36” (PLoS ONE, 2014)

Experiments:
[1] = Tryptophan fluorescence emission with lipid vesicles; format: binding
[2] = as above; format: binding; remark: listed apart in the source
[3] = 500 µM lipid, peptide/lipid 1:50, 10 mM Tris-HCl pH 7.4, excitation 280 nm

With CC[C@H](C)[C@H](NC(=O)CN)C(=O)NCC(=O)N[C@@H](C)C(=O)N[C@H](C(=O)N[C@@H](CC(C)C)C(=O)N[C@@H](CCCCN)C(=O)N[C@H](C(=O)N[C@@H](CC(C)C)C(=O)N[C@H](C(=O)N[C@H](C(=O)NCC(=O)N[C@@H](CC(C)C)C(=O)N1CCC[C@H]1C(=O)N[C@@H](C)C(=O)N[C@@H](CC(C)C)C(=O)N[C@H](C(=O)N[C@@H](CO)C(=O)N[C@@H](Cc1c[nH]c2ccccc12)C(=O)N[C@H](C(=O)N[C@@H](CCCCN)C(=O)N[C@@H](CCCNC(=N)N)C(=O)N[C@@H](CCCCN)C(=O)N[C@@H](CCCNC(=N)N)C(=O)N[C@@H](CCC(N)=O)C(=O)N[C@@H](CCC(N)=O)C(N)=O)[C@@H](C)CC)[C@@H](C)CC)[C@@H](C)O)[C@@H](C)O)C(C)C)C(C)C [melittin] the “Fluorescence emission maxima, PE/PG” value [1, 3] was 333 nm, the “Blue shift of emission maximum compared to Tris buffer, PE/PG” value ([1]; peptide/lipid 1:50) was 18 nm and the “Fluorescence emission maxima, PC/cholesterol” value [2, 3] was 335 nm. The “Blue shift of emission maximum compared to Tris buffer, PC/cholesterol” value ([2]; peptide/lipid 1:50) was 16 nm.
